Reference: the supplement of paper PMC12889115
This is one part of the list. These are raw signals, not scaled to a control.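 First-pass screen: polymyxin B was added at a level that permeabilizes the Salmonella outer membrane while sparing the inner membrane. DMSO wells, with and without polymyxin B, defined maximum growth. Because plates differed from one another, each plate's data were ranked separately and the compounds with the lowest OD600 were carried forward as hits.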

Tested on: Salmonella enterica serovar Typhimurium SL1344
Assay: bacterial growth OD600 after 18 h with compound and polymyxin B; higher = more bacterial growth (less inhibition)
Conditions: 50 µM, Mueller-Hinton broth

| SMILES | bacterial growth OD600 (polymyxin B 0.75 µg/mL) | bacterial growth OD600 (polymyxin B 1 µg/mL) |
| --- | --- | --- |
| CN(Cc1ccncn1)C(=O)c1cc(Cn2ccc3ccccc32)[nH]n1 | 0.82 | – |
| COc1cccc(C(=O)NCC2CCCN(Cc3ccc(C)s3)C2)c1OC (centres undefined) | – | 0.852 |
| COCCC(=O)N1CCC(C(=O)Nc2ccc(Oc3ccccc3)nc2)CC1 | – | 0.792 |
| CCOC(=O)N1CCC(N2CCCC(C(=O)c3cccc(OC)c3)C2)CC1 (centres undefined) | 0.766 | – |
| Cc1ccn(CC(=O)N2CCCC(C(=O)c3ccc4c5c(cccc35)CC4)C2)n1 (centres undefined) | – | 0.584 |
| O=C1O[C@@H]2CN(Cc3ccsc3)C[C@@H]2N1C1CCCC1 | 0.763 | – |
| O=C(NCC1CC1)C1CCCN(C2CCN(C3Cc4ccccc4C3)CC2)C1 (centres undefined) | 0.797 | – |
| Cc1ccc(CN(C)C(=O)C2CCN(c3nc(C)c4ccc(S(C)(=O)=O)cc4n3)CC2)cc1 | 0.378 | – |
| O=C(NCCc1ccncc1)c1coc(COc2ccc(F)cc2Cl)n1 | – | 0.977 |
| COc1cc(C)c(CNC(C)c2cnc(-c3ccncc3)nc2C)cc1C (centres undefined) | 0.772 | – |
| CCN(CC)C(=O)C1CCCN(Cc2ccc3c(c2)CN(Cc2cc(OC)ccc2OC)CCO3)C1 (centres undefined) | 0.819 | – |
| CC1(C)CC(CCNC(=O)CCC2(Cc3cccs3)CCC(=O)N2)(c2ccccc2)CCO1 (centres undefined) | 0.765 | – |
| CCCn1cc([C@@H]2C[C@H]3CN(Cc4ccccc4OC)C(=O)[C@]34CCCN24)c(C)n1 | 0.874 | – |
| CCC1(C2CCN(C(=O)c3ccccc3C(F)(F)F)CC2)NC(=O)N(Cc2ccccn2)C1=O (centres undefined) | 0.833 | – |
| COc1ccccc1C(=O)Nc1ccnn1C1CCN(Cc2cc(C(C)C)[nH]n2)CC1 | – | 1.25 |
| C[C@@H]1CN(C2(C(=O)NC(C3CC3)C3CC3)Cc3ccccc3C2)C[C@H](C)O1 | – | 1.06 |
| O=C1CCCN1CCC(=O)N1CCOC(Cc2cccc(C(F)(F)F)c2)C1 (centres undefined) | 0.856 | – |
| O=C(/C=C/c1cccs1)N1CCC(C2(Cc3ccc(F)cc3)NC(=O)N(C3CCOC3)C2=O)CC1 (centres undefined) | 0.798 | – |
| C#CCN(CC=C)C(=O)c1cc(Cn2cnc3cc(C)c(C)cc32)[nH]n1 | – | 1.22 |

Individual results from the results shown:
Under bacterial growth OD600 (polymyxin B 1 µg/mL), COc1cccc(C(=O)NCC2CCCN(Cc3ccc(C)s3)C2)c1OC (centres undefined) reads 0.852
Under bacterial growth OD600 (polymyxin B 0.75 µg/mL), O=C1CCCN1CCC(=O)N1CCOC(Cc2cccc(C(F)(F)F)c2)C1 (centres undefined) reads 0.856
